Patent US10175229B2, “Rapid method for measuring cytotoxicity in non-RI system” (NAGASAKI UNIVERSITY, priority 2014, dated 2019)

Tested on: Histiocytoma U937 cells
Assay: Spontaneous and maximum release of labeled compound, time-resolved fluorometric assay (Eu assay)
Assay type: cell-based
Details: 25 μM compound, maximum release divided by spontaneous release (%)
Experimental: Histiocytoma U937 cells were cultured in 30 mL of RPMI1640 medium under the conditions of 37° C., 5% CO2 overnight, the culture medium (30 mL) was placed in a 50 mL conical tube, and the cell number was counted. After centrifugation at 1700 rpm at 4° C. for 5 min, the supernatant was removed, and the cell pellets were resuspended in RPMI1640 medium at 1×10^6 cells/mL. To the cell suspension (1 mL) in a 15 mL conical tube was added 2.5 μL of a compound represented by the formula (I) or a salt thereof (10 mM stock solution) (final concentration: 25 μM), and the mixture was incubated under the conditions of 37° C., 5% CO2 for 15 min. The cells were washed 3 times with 5 mL of RPMI1640 medium, and resuspended in 5 mL of RPMI1640 medium. The cell suspension (2 mL) was placed in a 15 mL conical tube containing 6 mL of RPMI1640 medium to adjust the cell concentration to 5×10^3 cells/100 μL. The cell suspension (100 μL) was seeded in 6 wells of a 96 flat bottom plate. 100 μL of RPMI1640 medium was added to wells for determining the amount of spontaneous release, and 90 μL of RPMI1640 medium was added to wells for determining the amount of maximum release. The plates were centrifuged at 500 rpm, room temperature for 2 min and incubated under 37° C., 5% CO2 condition for 30 min. A newly-prepared 0.125% digitonin solution in 19% DMSO (mixed solution of 3 mg digitonin, 0.456 mL DMSO and 1.944 mL H2O) (10 μL) was added to the aforementioned wells for determining the amount of maximum release, mixed well and further incubated for 30 min. After incubation, the cell suspension was mixed well again, and centrifuged at 1700 rpm, room temperature for 2 min. After the centrifugation, the supernatant (25 μL) was carefully transferred into wells containing 250 μL of europium solution in a 96 flat bottom plate, and 200 μL of the solution thereof was placed in a 96-well flat bottom plate.
The plate was allowed to stand for 15 min, and the time-resolved fluorescence was measured by ARVO multiplate reader.

| Structure (SMILES) | labeled molecule advantage Index (B/C) |
| --- | --- |
| CCCC(=O)OCOC(=O)c1cccc(-c2cc(OCCOCCO)cc(-c3cccc(C(=O)OCOC(=O)CCC)n3)n2)n1 [Example 7, bis(butyryloxymethyl) 4′-(2-(2-hydroxyethoxy)ethoxy)-2,2′:6′,2″-terpyridine-6,6″-dicarboxylate] | 6594 |
| CCCC(=O)OCOC(=O)c1cccc(-c2cc(OCCCO)cc(-c3cccc(C(=O)OCOC(=O)CCC)n3)n2)n1 [Example 6, bis(butyryloxymethyl) 4′-(3-hydroxypropoxy)-2,2′:6′,2″-terpyridine-6,6″-dicarboxylate] | 11174 |
| CCC(=O)OCOC(=O)c1cccc(-c2cc(OCCO)cc(-c3cccc(C(=O)OCOC(=O)CC)n3)n2)n1 [Example 5, bis(propionyloxymethyl) 4′-(2-hydroxyethoxy)-2,2′:6′,2″-terpyridine-6,6″-dicarboxylate] | 8889 |
| CCCC(=O)OCOC(=O)c1cccc(-c2cc(OCCO)cc(-c3cccc(C(=O)OCOC(=O)CCC)n3)n2)n1 [Example 1, bis(butyryloxymethyl) 4′-(2-hydroxyethoxy)-2,2′:6′,2″-terpyridine-6,6″-dicarboxylate] | 6775 |
| CCCNC(=O)COc1cc(-c2cccc(C(=O)OCOC(C)=O)n2)nc(-c2cccc(C(=O)OCOC(C)=O)n2)c1 [Example 2, bis(acetoxymethyl) 4′-(2-oxo-2-(propylamino)ethoxy)-2,2′:6′,2″-terpyridine-6,6″-dicarboxylate] | 5170 |
| CC(=O)OCOC(=O)c1cccc(-c2cc(CO)cc(-c3cccc(C(=O)OCOC(C)=O)n3)n2)n1 [Example 9, bis(acetoxymethyl) 4′-(hydroxymethyl)-2,2′:6′,2″-terpyridine-6,6″-dicarboxylate] | 7671 |
| CCCC(=O)OCOC(=O)c1cccc(-c2cc(OCC=O)cc(-c3cccc(C(=O)OCOC(=O)CCC)n3)n2)n1 [Example 4, bis(butyryloxymethyl) 4′-(2-oxyethoxy)-2,2′:6′,2″-terpyridine-6,6″-dicarboxylate] | 5204 |
| CC(=O)OCOC(=O)c1cccc(-c2cccc(-c3cccc(C(=O)OCOC(C)=O)n3)n2)n1 [BATDA, bis(acetoxymethyl) 2,2′:6′,2″-terpyridine-6,6″-dicarboxylate, reference compound] | 5091 |
| CC(=O)OCOC(=O)c1cccc(-c2cc(OCCO)cc(-c3cccc(C(=O)OCOC(C)=O)n3)n2)n1 [Example 3, bis(acetoxymethyl) 4′-(2-hydroxyethoxy)-2,2′:6′,2″-terpyridine-6,6″-dicarboxylate] | 9841 |
